No constants are given. Whether binding was seen depends on the method and setting. In cells and extracts the contact can be indirect. Here binding means that the protein was enriched with, or labelled near, the bait; the list need not be complete.
B1: Krt77 (protein, UniProt Q7Z794 1-578)
chain: MSHQFSSQSAFSSMSRRVYSTSSSAGSGGGSPAVGSVCYARGRCGGGGYGIHGRGFGSRSLYNLGGSRSISINLMGRSTSGFCQGGGVGGFGGGRGFGVGSTGAGGFGGGGFGGAGFGTSNFGLGGFGPYCPPGGIQEVTINQSLLEPLHLEVDPEIQRIKTQEREQIMVLNNKFASFIDKVRFLEQQNQVLQTKWELLQQVNTSTGTNNLEPLLENYIGDLRRQVDLLSAEQMRQNAEVRSMQDVVEDYKSKYEDEINKRTGSENDFVVLKKDVDAAYVSKVDLESRVDTLTGEVNFLKYLFLTELSQVQTHISDTNVILSMDNNRSLDLDSIIDAVRTQYELIAQRSKDEAEALYQTKYQELQITAGRHGDDLKNSKMEIAELNRTVQRLQAEISNVKKQIEQMQSLISDAEERGEQALQDAWQKLQDLEEALQQSKEELARLLRDYQAMLGVKLSLDVEIATYRQLLEGEESRMSGELQSHVSISVQNSQVSVNGGAGGGGSYGSGGYGGGSGGGYGGGRSYRGGGARGRSGGGYGSGCGGGGGSYGGSGRSGRGSSRVQIIQTSTNTSHRRILE
B2: Cdkl5 (protein, UniProt O76039 1-960)
chain: MKIPNIGNVMNKFEILGVVGEGAYGVVLKCRHKETHEIVAIKKFKDSEENEEVKETTLRELKMLRTLKQENIVELKEAFRRRGKLYLVFEYVEKNMLELLEEMPNGVPPEKVKSYIYQLIKAIHWCHKNDIVHRDIKPENLLISHNDVLKLCDFGFARNLSEGNNANYTEYVATRWYRSPELLLGAPYGKSVDMWSVGCILGELSDGQPLFPGESEIDQLFTIQKVLGPLPSEQMKLFYSNPRFHGLRFPAVNHPQSLERRYLGILNSVLLDLMKNLLKLDPADRYLTEQCLNHPTFQTQRLLDRSPSRSAKRKPYHVESSTLSNRNQAGKSTALQSHHRSNSKDIQNLSVGLPRADEGLPANESFLNGNLAGASLSPLHTKTYQASSQPGSTSKDLTNNNIPHLLSPKEAKSKTEFDFNIDPKPSEGPGTKYLKSNSRSQQNRHSFMESSQSKAGTLQPNEKQSRHSYIDTIPQSSRSPSYRTKAKSHGALSDSKSVSNLSEARAQIAEPSTSRYFPSSCLDLNSPTSPTPTRHSDTRTLLSPSGRNNRNEGTLDSRRTTTRHSKTMEELKLPEHMDSSHSHSLSAPHESFSYGLGYTSPFSSQQRPHRHSMYVTRDKVRAKGLDGSLSIGQGMAARANSLQLLSPQPGEQLPPEMTVARSSVKETSREGTSSFHTRQKSEGGVYHDPHSDDGTAPKENRHLYNDPVPRRVGSFYRVPSPRPDNSFHENNVSTRVSSLPSESSSGTNHSKRQPAFDPWKSPENISHSEQLKEKEKQGFFRSMKKKKKKSQTVPNSDSPDLLTLQKSIHSASTPSSRPKEWRPEKISDLQTQSQPLKSLRKLLHLSSASNHPASSDPRFQPLTAQQTKNSFSEIRIHPLSQASGGSSNIRQEPAPKGRPALQLPGQMDPGWHVSSVTRSATEGPSYSEQLGAKSGPNGHPYNRTNRSRMPNLNDLKETAL
B3: Ctcf (protein, UniProt P49711 1-727)
chain: MEGDAVEAIVEESETFIKGKERKTYQRRREGGQEEDACHLPQNQTDGGEVVQDVNSSVQMVMMEQLDPTLLQMKTEVMEGTVAPEAEAAVDDTQIITLQVVNMEEQPINIGELQLVQVPVPVTVPVATTSVEELQGAYENEVSKEGLAESEPMICHTLPLPEGFQVVKVGANGEVETLEQGELPPQEDPSWQKDPDYQPPAKKTKKTKKSKLRYTEEGKDVDVSVYDFEEEQQEGLLSEVNAEKVVGNMKPPKPTKIKKKGVKKTFQCELCSYTCPRRSNLDRHMKSHTDERPHKCHLCGRAFRTVTLLRNHLNTHTGTRPHKCPDCDMAFVTSGELVRHRRYKHTHEKPFKCSMCDYASVEVSKLKRHIRSHTGERPFQCSLCSYASRDTYKLKRHMRTHSGEKPYECYICHARFTQSGTMKMHILQKHTENVAKFHCPHCDTVIARKSDLGVHLRKQHSYIEQGKKCRYCDAVFHERYALIQHQKSHKNEKRFKCDQCDYACRQERHMIMHKRTHTGEKPYACSHCDKTFRQKQLLDMHFKRYHDPNFVPAAFVCSKCGKTFTRRNTMARHADNCAGPDGVEGENGGETKKSKRGRKRKMRSKKEDSSDSENAEPDLDDNEDEEEPAVEIEPEPEPQPVTPAPPPAKKRRGRPPGRTNQPKQNQPTAIIQVEDQNTGAIENIIVEVKKEPDAEPAEGEEEEAQPAATDAPNGDLTPEMILSMMDR
B4: Adnp (protein, UniProt Q9H2P0 1-1102)
chain: MFQLPVNNLGSLRKARKTVKKILSDIGLEYCKEHIEDFKQFEPNDFYLKNTTWEDVGLWDPSLTKNQDYRTKPFCCSACPFSSKFFSAYKSHFRNVHSEDFENRILLNCPYCTFNADKKTLETHIKIFHAPNASAPSSSLSTFKDKNKNDGLKPKQADSVEQAVYYCKKCTYRDPLYEIVRKHIYREHFQHVAAPYIAKAGEKSLNGAVPLGSNAREESSIHCKRCLFMPKSYEALVQHVIEDHERIGYQVTAMIGHTNVVVPRSKPLMLIAPKPQDKKSMGLPPRIGSLASGNVRSLPSQQMVNRLSIPKPNLNSTGVNMMSSVHLQQNNYGVKSVGQGYSVGQSMRLGLGGNAPVSIPQQSQSVKQLLPSGNGRSYGLGSEQRSQAPARYSLQSANASSLSSGQLKSPSLSQSQASRVLGQSSSKPAAAATGPPPGNTSSTQKWKICTICNELFPENVYSVHFEKEHKAEKVPAVANYIMKIHNFTSKCLYCNRYLPTDTLLNHMLIHGLSCPYCRSTFNDVEKMAAHMRMVHIDEEMGPKTDSTLSFDLTLQQGSHTNIHLLVTTYNLRDAPAESVAYHAQNNPPVPPKPQPKVQEKADIPVKSSPQAAVPYKKDVGKTLCPLCFSILKGPISDALAHHLRERHQVIQTVHPVEKKLTYKCIHCLGVYTSNMTASTITLHLVHCRGVGKTQNGQDKTNAPSRLNQSPSLAPVKRTYEQMEFPLLKKRKLDDDSDSPSFFEEKPEEPVVLALDPKGHEDDSYEARKSFLTKYFNKQPYPTRREIEKLAASLWLWKSDIASHFSNKRKKCVRDCEKYKPGVLLGFNMKELNKVKHEMDFDAEWLFENHDEKDSRVNASKTADKKLNLGKEDDSSSDSFENLEEESNESGSPFDPVFEVEPKISNDNPEEHVLKVIPEDASESEEKLDQKEDGSKYETIHLTEEPTKLMHNASDSEVDQDDVVEWKDGASPSESGPGSQQVSDFEDNTCEMKPGTWSDESSQSEDARSSKPAAKKKATMQGDREQLKWKNSSYGKVEGFWSKDQSQWKNASENDERLSNPQIEWQNSTIDSEDGEQFDNMTDGVAEPMHGSLAGVKLSSQQA
B5: Ppp1r10 (protein, UniProt Q96QC0 1-940)
chain: MGSGPIDPKELLKGLDSFLNRDGEVKSVDGISKIFSLMKEARKMVSRCTYLNILLQTRSPEILVKFIDVGGYKLLNNWLTYSKTTNNIPLLQQILLTLQHLPLTVDHLKQNNTAKLVKQLSKSSEDEELRKLASVLVSDWMAVIRSQSSTQPAEKDKKKRKDEGKSRTTLPERPLTEVKAETRAEEAPEKKREKPKSLRTTAPSHAKFRSTGLELETPSLVPVKKNASTVVVSDKYNLKPIPLKRQSNVAAPGDATPPAEKKYKPLNTTPNATKEIKVKIIPPQPMEGLGFLDALNSAPVPGIKIKKKKKVLSPTAAKPSPFEGKTSTEPSTAKPSSPEPAPPSEAMDADRPGTPVPPVEVPELMDTASLEPGALDAKPVESPGDPNQLTRKGRKRKSVTWPEEGKLREYFYFELDETERVNVNKIKDFGEAAKREILSDRHAFETARRLSHDNMEEKVPWVCPRPLVLPSPLVTPGSNSQERYIQAEREKGILQELFLNKESPHEPDPEPYEPIPPKLIPLDEECSMDETPYVETLEPGGSGGSPDGAGGSKLPPVLANLMGSMGAGKGPQGPGGGGINVQEILTSIMGSPNSHPSEELLKQPDYSDKIKQMLVPHGLLGPGPIANGFPPGGPGGPKGMQHFPPGPGGPMPGPHGGPGGPVGPRLLGPPPPPRGGDPFWDGPGDPMRGGPMRGGPGPGPGPYHRGRGGRGGNEPPPPPPPFRGARGGRSGGGPPNGRGGPGGGMVGGGGHRPHEGPGGGMGNSSGHRPHEGPGGGMGSGHRPHEGPGGSMGGGGGHRPHEGPGGGISGGSGHRPHEGPGGGMGAGGGHRPHEGPGGSMGGSGGHRPHEGPGHGGPHGHRPHDVPGHRGHDHRGPPPHEHRGHDGPGHGGGGHRGHDGGHSHGGDMSNRPVCRHFMMKGNCRYENNCAFYHPGVNGPPLP

biological target: Biotin-FOXC1 (mouse) (UniProt Q61572); assay: affinity purification with mass spectrometry; streptavidin-agarose precipitation of biotinylated FOXC1 from nuclear extract of stable HEK293T cells (293T-Biotin-FOXC1); IP350 buffer (350 mM NaCl, 20 mM Tris-HCl pH 7.5, 0.5% NP40, 1 mM EDTA, 10% glycerin); SDS-PAGE, LC-ESI-MS/MS; proteins of the 293T-Biotin control deducted

binding, binds:
B1
B2
B3
B4
B5

— paper PMC7956269
